In the supplement of paper PMC11264405:

Columns and labels:
Test in all cases: minimum inhibitory concentration
linezolid = compound: CC(=O)NC[C@H]1CN(c2ccc(N3CCOCC3)c(F)c2)C(=O)O1 [linezolid]
clindamycin = compound: CCC[C@@H]1C[C@@H](C(=O)N[C@@H]([C@H]2O[C@H](SC)[C@H](O)[C@@H](O)[C@H]2O)[C@H](C)Cl)N(C)C1 [clindamycin]
fidaxomicin = compound: CCc1c(Cl)c(O)c(Cl)c(O)c1C(=O)O[C@H]1[C@H](O)[C@H](OC)[C@H](OC/C2=C\C=C\C[C@H](O)/C(C)=C/[C@H](CC)[C@@H](O[C@@H]3OC(C)(C)[C@@H](OC(=O)C(C)C)[C@H](O)[C@@H]3O)/C(C)=C/C(C)=C/C[C@@H]([C@@H](C)O)OC2=O)O[C@@H]1C [fidaxomicin]
tigecycline = compound: CN(C)c1cc(NC(=O)CNC(C)(C)C)c(O)c2c1C[C@H]1C[C@H]3[C@H](N(C)C)C(O)=C(C(N)=O)C(=O)[C@@]3(O)C(O)=C1C2=O [tigecycline]
vancomycin = compound: CN[C@H](CC(C)C)C(=O)N[C@H]1C(=O)N[C@@H](CC(N)=O)C(=O)N[C@H]2C(=O)N[C@H]3C(=O)N[C@H](C(=O)N[C@H](C(=O)O)c4cc(O)cc(O)c4-c4cc3ccc4O)[C@H](O)c3ccc(c(Cl)c3)Oc3cc2cc(c3O[C@@H]2O[C@H](CO)[C@@H](O)[C@H](O)[C@H]2O[C@H]2C[C@](C)(N)[C@H](O)[C@H](C)O2)Oc2ccc(cc2Cl)[C@H]1O [vancomycin]
rifampicin = compound: CO[C@H]1/C=C/O[C@@]2(C)Oc3c(C)c(O)c4c(O)c(c(/C=N/N5CCN(C)CC5)c(O)c4c3C2=O)NC(=O)/C(C)=C\C=C\[C@H](C)[C@H](O)[C@@H](C)[C@@H](O)[C@@H](C)[C@H](OC(C)=O)[C@@H]1C [rifampicin]
imipenem = compound: C[C@@H](O)[C@H]1C(=O)N2C(C(=O)O)=C(SCCNC=N)C[C@H]12 [imipenem]
meropenem = compound: C[C@@H](O)[C@H]1C(=O)N2C(C(=O)O)=C(S[C@@H]3CN[C@H](C(=O)N(C)C)C3)[C@H](C)[C@H]12 [meropenem]
metronidazole = compound: Cc1ncc([N+](=O)[O-])n1CCO [metronidazole]

Test System: Clostridioides difficile PCR ribotype 181 isolate #229 (European region: East, country: Romania, isolate source: Human, ribotype: 181)
- minimum inhibitory concentration (linezolid): 1 µg/mL
- minimum inhibitory concentration (clindamycin): 2 µg/mL
- minimum inhibitory concentration (fidaxomicin): 0.03 µg/mL
- minimum inhibitory concentration (tigecycline): < 0.03 µg/mL
- minimum inhibitory concentration (vancomycin): 0.5 µg/mL
- minimum inhibitory concentration (rifampicin): > 32 µg/mL
- minimum inhibitory concentration (imipenem): 4 µg/mL
- minimum inhibitory concentration (meropenem): 4 µg/mL
- minimum inhibitory concentration (metronidazole): 1 µg/mL

Test System: Clostridioides difficile PCR ribotype 181 isolate #230 (European region: East, country: Romania, isolate source: Human, ribotype: 181)
- minimum inhibitory concentration (linezolid): 1 µg/mL
- minimum inhibitory concentration (clindamycin): 16 µg/mL
- minimum inhibitory concentration (fidaxomicin): 0.03 µg/mL
- minimum inhibitory concentration (tigecycline): < 0.03 µg/mL
- minimum inhibitory concentration (vancomycin): 0.5 µg/mL
- minimum inhibitory concentration (rifampicin): > 32 µg/mL
- minimum inhibitory concentration (imipenem): 8 µg/mL
- minimum inhibitory concentration (meropenem): 4 µg/mL
- minimum inhibitory concentration (metronidazole): 1 µg/mL

Test System: Clostridioides difficile PCR ribotype 181 isolate #231 (European region: East, country: Romania, isolate source: Human, ribotype: 181)
- minimum inhibitory concentration (linezolid): 2 µg/mL
- minimum inhibitory concentration (clindamycin): 32 µg/mL
- minimum inhibitory concentration (fidaxomicin): 0.03 µg/mL
- minimum inhibitory concentration (tigecycline): < 0.03 µg/mL
- minimum inhibitory concentration (vancomycin): 0.5 µg/mL
- minimum inhibitory concentration (rifampicin): < 0.001 µg/mL
- minimum inhibitory concentration (imipenem): 4 µg/mL
- minimum inhibitory concentration (meropenem): 4 µg/mL
- minimum inhibitory concentration (metronidazole): 1 µg/mL

Test System: Clostridioides difficile PCR ribotype 181 isolate #232 (European region: East, country: Romania, isolate source: Human, ribotype: 181)
- minimum inhibitory concentration (linezolid): 2 µg/mL
- minimum inhibitory concentration (clindamycin): 8 µg/mL
- minimum inhibitory concentration (fidaxomicin): 0.03 µg/mL
- minimum inhibitory concentration (tigecycline): < 0.03 µg/mL
- minimum inhibitory concentration (vancomycin): 0.5 µg/mL
- minimum inhibitory concentration (rifampicin): > 32 µg/mL
- minimum inhibitory concentration (imipenem): 4 µg/mL
- minimum inhibitory concentration (meropenem): 4 µg/mL
- minimum inhibitory concentration (metronidazole): 2 µg/mL

Test System: Clostridioides difficile PCR ribotype 181 isolate #233 (European region: East, country: Romania, isolate source: Human, ribotype: 181)
- minimum inhibitory concentration (linezolid): 2 µg/mL
- minimum inhibitory concentration (clindamycin): 1 µg/mL
- minimum inhibitory concentration (fidaxomicin): 0.03 µg/mL
- minimum inhibitory concentration (tigecycline): < 0.03 µg/mL
- minimum inhibitory concentration (vancomycin): 0.5 µg/mL
- minimum inhibitory concentration (rifampicin): > 32 µg/mL
- minimum inhibitory concentration (imipenem): 8 µg/mL
- minimum inhibitory concentration (meropenem): 4 µg/mL
- minimum inhibitory concentration (metronidazole): 1 µg/mL

Test System: Clostridioides difficile PCR ribotype 181 isolate #234 (European region: East, country: Romania, isolate source: Human, ribotype: 181)
- minimum inhibitory concentration (linezolid): 2 µg/mL
- minimum inhibitory concentration (clindamycin): 0.25 µg/mL
- minimum inhibitory concentration (fidaxomicin): 0.03 µg/mL
- minimum inhibitory concentration (tigecycline): < 0.03 µg/mL
- minimum inhibitory concentration (vancomycin): 0.5 µg/mL
- minimum inhibitory concentration (rifampicin): > 32 µg/mL
- minimum inhibitory concentration (imipenem): 4 µg/mL
- minimum inhibitory concentration (meropenem): 4 µg/mL
- minimum inhibitory concentration (metronidazole): 1 µg/mL

Test System: Clostridioides difficile PCR ribotype 181 isolate #235 (European region: East, country: Romania, isolate source: Human, ribotype: 181)
- minimum inhibitory concentration (linezolid): 1 µg/mL
- minimum inhibitory concentration (clindamycin): 2 µg/mL
- minimum inhibitory concentration (fidaxomicin): 0.03 µg/mL
- minimum inhibitory concentration (tigecycline): < 0.03 µg/mL
- minimum inhibitory concentration (vancomycin): 0.5 µg/mL
- minimum inhibitory concentration (rifampicin): > 32 µg/mL
- minimum inhibitory concentration (imipenem): 4 µg/mL
- minimum inhibitory concentration (meropenem): 4 µg/mL
- minimum inhibitory concentration (metronidazole): 0.5 µg/mL

Test System: Clostridioides difficile PCR ribotype 181 isolate #236 (European region: East, country: Romania, isolate source: Human, ribotype: 181)
- minimum inhibitory concentration (linezolid): 2 µg/mL
- minimum inhibitory concentration (clindamycin): > 128 µg/mL
- minimum inhibitory concentration (fidaxomicin): 0.008 µg/mL
- minimum inhibitory concentration (tigecycline): < 0.03 µg/mL
- minimum inhibitory concentration (vancomycin): 0.5 µg/mL
- minimum inhibitory concentration (rifampicin): > 32 µg/mL
- minimum inhibitory concentration (imipenem): 4 µg/mL
- minimum inhibitory concentration (meropenem): 4 µg/mL
- minimum inhibitory concentration (metronidazole): 2 µg/mL

Test System: Clostridioides difficile PCR ribotype 181 isolate #237 (European region: East, country: Romania, isolate source: Human, ribotype: 181)
- minimum inhibitory concentration (linezolid): 2 µg/mL
- minimum inhibitory concentration (clindamycin): 8 µg/mL
- minimum inhibitory concentration (fidaxomicin): 0.03 µg/mL
- minimum inhibitory concentration (tigecycline): < 0.03 µg/mL
- minimum inhibitory concentration (vancomycin): 0.5 µg/mL
- minimum inhibitory concentration (rifampicin): > 32 µg/mL
- minimum inhibitory concentration (imipenem): 4 µg/mL
- minimum inhibitory concentration (meropenem): 4 µg/mL
- minimum inhibitory concentration (metronidazole): 1 µg/mL

Test System: Clostridioides difficile PCR ribotype 181 isolate #238 (European region: East, country: Romania, isolate source: Human, ribotype: 181)
- minimum inhibitory concentration (linezolid): 2 µg/mL
- minimum inhibitory concentration (clindamycin): 8 µg/mL
- minimum inhibitory concentration (fidaxomicin): 0.03 µg/mL
- minimum inhibitory concentration (tigecycline): < 0.03 µg/mL
- minimum inhibitory concentration (vancomycin): 0.5 µg/mL
- minimum inhibitory concentration (rifampicin): > 32 µg/mL
- minimum inhibitory concentration (imipenem): 4 µg/mL
- minimum inhibitory concentration (meropenem): 4 µg/mL
- minimum inhibitory concentration (metronidazole): 1 µg/mL

Test System: Clostridioides difficile PCR ribotype 181 isolate #239 (European region: East, country: Romania, isolate source: Human, ribotype: 181)
- minimum inhibitory concentration (linezolid): 2 µg/mL
- minimum inhibitory concentration (clindamycin): 8 µg/mL
- minimum inhibitory concentration (fidaxomicin): 0.03 µg/mL
- minimum inhibitory concentration (tigecycline): < 0.03 µg/mL
- minimum inhibitory concentration (vancomycin): 0.5 µg/mL
- minimum inhibitory concentration (rifampicin): > 32 µg/mL
- minimum inhibitory concentration (imipenem): 8 µg/mL
- minimum inhibitory concentration (meropenem): 4 µg/mL
- minimum inhibitory concentration (metronidazole): 1 µg/mL

Test System: Clostridioides difficile PCR ribotype 181 isolate #240 (European region: East, country: Romania, isolate source: Human, ribotype: 181)
- minimum inhibitory concentration (linezolid): 2 µg/mL
- minimum inhibitory concentration (clindamycin): 16 µg/mL
- minimum inhibitory concentration (fidaxomicin): 0.03 µg/mL
- minimum inhibitory concentration (tigecycline): < 0.03 µg/mL
- minimum inhibitory concentration (vancomycin): 0.5 µg/mL
- minimum inhibitory concentration (rifampicin): > 32 µg/mL
- minimum inhibitory concentration (imipenem): 8 µg/mL
- minimum inhibitory concentration (meropenem): 4 µg/mL
- minimum inhibitory concentration (metronidazole): 1 µg/mL

Test System: Clostridioides difficile PCR ribotype 181 isolate #241 (European region: East, country: Romania, isolate source: Human, ribotype: 181)
- minimum inhibitory concentration (linezolid): 2 µg/mL
- minimum inhibitory concentration (clindamycin): 8 µg/mL
- minimum inhibitory concentration (fidaxomicin): 0.06 µg/mL
- minimum inhibitory concentration (tigecycline): < 0.03 µg/mL
- minimum inhibitory concentration (vancomycin): 0.5 µg/mL
- minimum inhibitory concentration (rifampicin): > 32 µg/mL
- minimum inhibitory concentration (imipenem): 4 µg/mL
- minimum inhibitory concentration (meropenem): 4 µg/mL
- minimum inhibitory concentration (metronidazole): 1 µg/mL
